Test results: PMC13198017

Sequences of proteins named here, by UniProt entry; tags and fusion partners are left off. A change or cut given only in a name is not applied to a line headed by its entry.
UniProt Q92520: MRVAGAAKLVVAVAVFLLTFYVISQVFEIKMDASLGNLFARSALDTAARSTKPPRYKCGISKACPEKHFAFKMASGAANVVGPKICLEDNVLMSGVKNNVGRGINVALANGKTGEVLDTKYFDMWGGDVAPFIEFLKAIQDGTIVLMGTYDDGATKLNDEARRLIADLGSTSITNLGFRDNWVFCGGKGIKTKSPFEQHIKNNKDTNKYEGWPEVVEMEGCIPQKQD
UniProt P53621: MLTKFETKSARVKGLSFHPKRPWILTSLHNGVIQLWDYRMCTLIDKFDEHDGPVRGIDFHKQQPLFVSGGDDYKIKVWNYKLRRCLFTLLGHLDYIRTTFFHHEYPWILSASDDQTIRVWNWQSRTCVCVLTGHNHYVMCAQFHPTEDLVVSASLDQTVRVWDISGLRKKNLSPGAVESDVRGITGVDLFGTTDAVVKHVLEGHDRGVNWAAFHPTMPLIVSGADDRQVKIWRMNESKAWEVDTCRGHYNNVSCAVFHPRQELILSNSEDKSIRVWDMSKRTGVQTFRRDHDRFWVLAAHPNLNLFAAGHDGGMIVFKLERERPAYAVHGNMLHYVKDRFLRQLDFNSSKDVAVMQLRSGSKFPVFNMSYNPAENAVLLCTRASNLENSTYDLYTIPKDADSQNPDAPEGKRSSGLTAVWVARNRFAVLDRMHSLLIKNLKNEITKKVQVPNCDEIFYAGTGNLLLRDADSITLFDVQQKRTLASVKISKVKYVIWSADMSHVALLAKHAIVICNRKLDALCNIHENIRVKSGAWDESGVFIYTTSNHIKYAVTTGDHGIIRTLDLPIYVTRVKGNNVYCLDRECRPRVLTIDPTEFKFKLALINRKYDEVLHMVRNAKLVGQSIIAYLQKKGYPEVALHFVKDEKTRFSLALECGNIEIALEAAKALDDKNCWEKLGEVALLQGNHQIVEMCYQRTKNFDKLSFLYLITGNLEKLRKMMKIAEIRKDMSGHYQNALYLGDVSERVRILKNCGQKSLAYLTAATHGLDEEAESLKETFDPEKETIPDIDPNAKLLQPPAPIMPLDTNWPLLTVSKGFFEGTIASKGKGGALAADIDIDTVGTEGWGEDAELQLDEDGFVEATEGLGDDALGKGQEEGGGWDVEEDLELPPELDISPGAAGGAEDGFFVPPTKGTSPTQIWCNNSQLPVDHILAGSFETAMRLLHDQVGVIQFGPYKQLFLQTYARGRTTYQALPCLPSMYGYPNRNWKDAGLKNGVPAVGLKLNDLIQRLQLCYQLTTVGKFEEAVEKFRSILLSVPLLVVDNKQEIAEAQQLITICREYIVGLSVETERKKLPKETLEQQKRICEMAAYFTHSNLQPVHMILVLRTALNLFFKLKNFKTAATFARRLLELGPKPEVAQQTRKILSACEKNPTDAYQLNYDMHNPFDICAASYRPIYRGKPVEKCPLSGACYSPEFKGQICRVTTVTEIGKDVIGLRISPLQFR
UniProt Q9Y678: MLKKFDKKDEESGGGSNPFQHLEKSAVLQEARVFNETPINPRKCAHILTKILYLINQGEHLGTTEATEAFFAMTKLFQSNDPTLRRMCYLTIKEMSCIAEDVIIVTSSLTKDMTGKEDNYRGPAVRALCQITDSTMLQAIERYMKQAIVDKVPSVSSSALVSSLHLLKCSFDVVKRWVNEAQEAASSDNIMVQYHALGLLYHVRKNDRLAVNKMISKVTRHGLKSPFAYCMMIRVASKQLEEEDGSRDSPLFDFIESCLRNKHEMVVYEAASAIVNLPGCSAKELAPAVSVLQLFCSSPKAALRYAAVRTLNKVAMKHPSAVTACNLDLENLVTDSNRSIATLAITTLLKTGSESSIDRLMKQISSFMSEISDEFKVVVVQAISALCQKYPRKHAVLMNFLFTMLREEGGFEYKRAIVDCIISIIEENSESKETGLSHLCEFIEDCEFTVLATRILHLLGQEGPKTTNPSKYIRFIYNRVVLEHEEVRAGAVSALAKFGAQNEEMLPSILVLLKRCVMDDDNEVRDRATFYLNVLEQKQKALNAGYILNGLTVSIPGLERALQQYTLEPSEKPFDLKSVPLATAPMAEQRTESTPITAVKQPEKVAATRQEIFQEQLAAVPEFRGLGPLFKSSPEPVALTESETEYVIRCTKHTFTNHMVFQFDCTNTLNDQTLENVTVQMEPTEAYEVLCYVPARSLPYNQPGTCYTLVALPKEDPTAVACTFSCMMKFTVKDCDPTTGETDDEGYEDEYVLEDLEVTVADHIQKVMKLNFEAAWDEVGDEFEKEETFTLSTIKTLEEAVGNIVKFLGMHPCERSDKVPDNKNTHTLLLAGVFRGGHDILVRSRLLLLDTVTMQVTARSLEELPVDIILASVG

Target: Fam3C (human (endogenous in SUM159)) (UniProt Q92520)
Assay: co-IP; SUM159 (derivative) cell lysates immunoprecipitated with Fam3C antibody or IgG control; immunoblot with anti-CopG or anti-CopA, anti-Fam3C and anti-HSP90 antibodies

Row | binding | Substance
1 | binds | CopA (from UniProt P53621 1-1224)
2 | binds | CopG (from UniProt Q9Y678 1-874)

Results are given in words; binding and its absence hold for the method and conditions named. Binding seen in cells or lysates may run through a third protein. Binding calls can cover weak binding; strength is not graded here.
